# Some results were stated once for a whole list of compounds, not compound by compound. Numbered stars: 1 amine (or outer) side, 2 acyl side, 3 side chain; on linkers, the order of the positions; unused ones are H or OH. Square brackets hold non-standard residues; d marks the D form. Side chains are listed from the residue outwards. Peptide text beside a SMILES is read from it. * marks the point of attachment. γGlu = O=C(O)[C@H](CCC(=O)[*:2])N[*:1]; Palmitoyl = CCCCCCCCCCCCCCCC(=O)*; 2Thi = N[C@@H](Cc1cccs1)C(=O)O
# Test system: db/db mice
# Assay: Fed glucose profile in diabetic db/db mice after single subcutaneous injection
# Assay type: in vivo
# Conditions: single s.c. 10 nmol/kg, 24 hours post-treatment (FIG. 6)
row,Compound,decrease of fed glucose levels relative to baseline
1,CCCCCCCCCCCCCCCC(=O)N[C@@H](CCC(=O)NCCCC[C@H](NC(=O)[C@H](CC(=O)O)NC(=O)[C@H](CO)NC(=O)[C@@H](NC(=O)[C@H](Cc1ccccc1)NC(=O)[C@@H](NC(=O)CNC(=O)[C@H](CC(C)C)NC(=O)[C@H](C)NC(=O)[C@@H](Cc1ccc(O)cc1)NC(C)=O)[C@@H](C)O)[C@@H](C)O)C(=O)N[C@@H](CO)C(=O)N[C@@H](CCCCN)C(=O)N[C@@H](Cc1ccc(O)cc1)C(=O)N[C@@H](CC(C)C)C(=O)N[C@@H](CC(=O)O)C(=O)N[C@@H](CCC(=O)O)C(=O)N[C@@H](CCCNC(=N)N)C(=O)N[C@@H](C)C(=O)N[C@@H](C)C(=O)N[C@@H](CCC(N)=O)C(=O)N[C@@H](CC(=O)O)C(=O)N[C@@H](Cc1ccccc1)C(=O)N[C@H](C(=O)N[C@@H](CCC(N)=O)C(=O)N[C@@H](Cc1c[nH]c2ccccc12)C(=O)N[C@@H](CC(C)C)C(=O)N[C@@H](CC(C)C)C(=O)N[C@@H](CCC(=O)O)C(=O)NCC(=O)NCC(=O)N1CCC[C@H]1C(=O)N[C@@H](CO)C(=O)N[C@@H](CO)C(=O)NCC(=O)N[C@@H](C)C(=O)N1CCC[C@H]1C(=O)N1CCC[C@H]1C(=O)N1CCC[C@H]1C(=O)N[C@@H](CO)C(N)=O)C(C)C)C(=O)O [compound 142] (Ac-[dY]ALGTFTSDK([γGlu-Palmitoyl])SKYLDERAAQDFVQWLLEGGPSSGAPPPS-NH2),greater than 50%
2,CCCCCCCCCCCCCCCC(=O)N[C@@H](CCC(=O)NCCCC[C@H](NC(=O)[C@H](CC(=O)O)NC(=O)[C@H](CO)NC(=O)[C@@H](NC(=O)[C@H](Cc1ccccc1)NC(=O)[C@@H](NC(=O)CNC(=O)[C@H](CCC(N)=O)NC(=O)CNC(=O)[C@H](N)Cc1c[nH]cn1)[C@@H](C)O)[C@@H](C)O)C(=O)N[C@@H](CO)C(=O)N[C@@H](CCCCN)C(=O)N[C@@H](Cc1ccc(O)cc1)C(=O)N[C@@H](CC(C)C)C(=O)N[C@@H](CC(=O)O)C(=O)N[C@@H](CCC(=O)O)C(=O)N[C@@H](CCCNC(=N)N)C(=O)N[C@@H](C)C(=O)N[C@@H](C)C(=O)N[C@@H](CCC(N)=O)C(=O)N[C@@H](CC(=O)O)C(=O)N[C@@H](Cc1ccccc1)C(=O)N[C@H](C(=O)N[C@@H](CCC(N)=O)C(=O)N[C@@H](Cc1c[nH]c2ccccc12)C(=O)N[C@@H](CC(C)C)C(=O)N[C@@H](CC(C)C)C(=O)N[C@@H](CCC(=O)O)C(=O)NCC(=O)NCC(=O)N1CCC[C@H]1C(=O)N[C@@H](CO)C(=O)N[C@@H](CO)C(=O)NCC(=O)N[C@@H](C)C(=O)N1CCC[C@H]1C(=O)N1CCC[C@H]1C(=O)N1CCC[C@H]1C(=O)N[C@@H](CO)C(N)=O)C(C)C)C(=O)O [compound 23] (H-[dH]GQGTFTSDK([γGlu-Palmitoyl])SKYLDERAAQDFVQWLLEGGPSSGAPPPS-NH2; N-terminus assumed),greater than 50%
3,CCCCCCCCCCCCCCCC(=O)N[C@@H](CCC(=O)NCCCC[C@H](NC(=O)[C@H](CC(=O)O)NC(=O)[C@H](CO)NC(=O)[C@@H](NC(=O)[C@H](Cc1ccccc1)NC(=O)[C@@H](NC(=O)CNC(=O)[C@H](CCC(N)=O)NC(=O)CNC(=O)[C@@H](N)Cc1cccs1)[C@@H](C)O)[C@@H](C)O)C(=O)N[C@@H](CO)C(=O)N[C@@H](CCCCN)C(=O)N[C@@H](Cc1ccc(O)cc1)C(=O)N[C@@H](CC(C)C)C(=O)N[C@@H](CC(=O)O)C(=O)N[C@@H](CCC(=O)O)C(=O)N[C@@H](CCCNC(=N)N)C(=O)N[C@@H](C)C(=O)N[C@@H](C)C(=O)N[C@@H](CCC(N)=O)C(=O)N[C@@H](CC(=O)O)C(=O)N[C@@H](Cc1ccccc1)C(=O)N[C@H](C(=O)N[C@@H](CCC(N)=O)C(=O)N[C@@H](Cc1c[nH]c2ccccc12)C(=O)N[C@@H](CC(C)C)C(=O)N[C@@H](CC(C)C)C(=O)N[C@@H](CCC(=O)O)C(=O)NCC(=O)NCC(=O)N1CCC[C@H]1C(=O)N[C@@H](CO)C(=O)N[C@@H](CO)C(=O)NCC(=O)N[C@@H](C)C(=O)N1CCC[C@H]1C(=O)N1CCC[C@H]1C(=O)N1CCC[C@H]1C(=O)N[C@@H](CO)C(N)=O)C(C)C)C(=O)O [compound 29] (H-[2Thi]GQGTFTSDK([γGlu-Palmitoyl])SKYLDERAAQDFVQWLLEGGPSSGAPPPS-NH2; N-terminus assumed),greater than 50%
4,CCCCCCCCCCCCCCCC(=O)N[C@@H](CCC(=O)NCCCC[C@H](NC(=O)[C@H](CC(=O)O)NC(=O)[C@H](CO)NC(=O)[C@@H](NC(=O)[C@H](Cc1ccccc1)NC(=O)[C@@H](NC(=O)CNC(=O)[C@H](CCC(N)=O)NC(=O)[C@H](C)NC(=O)[C@@H](Cc1ccc(O)cc1)NC(C)=O)[C@@H](C)O)[C@@H](C)O)C(=O)N[C@@H](CO)C(=O)N[C@@H](CCCCN)C(=O)N[C@@H](Cc1ccc(O)cc1)C(=O)N[C@@H](CC(C)C)C(=O)N[C@@H](CC(=O)O)C(=O)N[C@@H](CCC(=O)O)C(=O)N[C@@H](CCCNC(=N)N)C(=O)N[C@@H](C)C(=O)N[C@@H](C)C(=O)N[C@@H](CCC(N)=O)C(=O)N[C@@H](CC(=O)O)C(=O)N[C@@H](Cc1ccccc1)C(=O)N[C@H](C(=O)N[C@@H](CCC(N)=O)C(=O)N[C@@H](Cc1c[nH]c2ccccc12)C(=O)N[C@@H](CC(C)C)C(=O)N[C@@H](CC(C)C)C(=O)N[C@@H](CC(=O)O)C(=O)N[C@@H](C)C(=O)NCC(=O)N1CCC[C@H]1C(=O)N[C@@H](CO)C(=O)N[C@@H](CO)C(=O)NCC(=O)N[C@@H](C)C(=O)N1CCC[C@H]1C(=O)N1CCC[C@H]1C(=O)N1CCC[C@H]1C(=O)N[C@@H](CO)C(N)=O)C(C)C)C(=O)O [compound 143] (Ac-[dY]AQGTFTSDK([γGlu-Palmitoyl])SKYLDERAAQDFVQWLLDAGPSSGAPPPS-NH2),greater than 50%
5,CCCCCCCCCCCCCCCC(=O)N[C@@H](CCC(=O)NCCCC[C@H](NC(=O)[C@H](CC(=O)O)NC(=O)[C@H](CO)NC(=O)[C@@H](NC(=O)[C@H](Cc1ccccc1)NC(=O)[C@@H](NC(=O)CNC(=O)[C@H](CCC(N)=O)NC(=O)[C@H](C)NC(=O)[C@@H](Cc1ccc(O)cc1)NC(C)=O)[C@@H](C)O)[C@@H](C)O)C(=O)N[C@@H](CO)C(=O)N[C@@H](CCCCN)C(=O)N[C@@H](Cc1ccc(O)cc1)C(=O)N[C@@H](CC(C)C)C(=O)N[C@@H](CC(=O)O)C(=O)N[C@@H](CCC(=O)O)C(=O)N[C@@H](CCCNC(=N)N)C(=O)N[C@@H](C)C(=O)N[C@@H](C)C(=O)N[C@@H](CCC(N)=O)C(=O)N[C@@H](CC(=O)O)C(=O)N[C@@H](Cc1ccccc1)C(=O)N[C@H](C(=O)N[C@@H](CCC(N)=O)C(=O)N[C@@H](Cc1c[nH]c2ccccc12)C(=O)N[C@@H](CC(C)C)C(=O)N[C@@H](CC(C)C)C(=O)N[C@@H](CCC(=O)O)C(=O)NCC(=O)NCC(=O)N1CCC[C@H]1C(=O)N[C@@H](CO)C(=O)N[C@@H](CO)C(=O)NCC(=O)N[C@@H](C)C(=O)N1CCC[C@H]1C(=O)N1CCC[C@H]1C(=O)N1CCC[C@H]1C(=O)N[C@@H](CO)C(N)=O)C(C)C)C(=O)O [compound 12],greater than 50%
6,CCCCCCCCCCCCCCCC(=O)N[C@@H](CCC(=O)NCCCC[C@H](NC(=O)[C@H](CC(=O)O)NC(=O)[C@H](CO)NC(=O)[C@@H](NC(=O)[C@H](Cc1ccccc1)NC(=O)[C@@H](NC(=O)CNC(=O)[C@H](CCC(N)=O)NC(=O)[C@H](C)NC(=O)[C@@H](Cc1cccs1)NC(C)=O)[C@@H](C)O)[C@@H](C)O)C(=O)N[C@@H](CO)C(=O)N[C@@H](CCCCN)C(=O)N[C@@H](Cc1ccc(O)cc1)C(=O)N[C@@H](CC(C)C)C(=O)N[C@@H](CC(=O)O)C(=O)N[C@@H](CCC(=O)O)C(=O)N[C@@H](CCCNC(=N)N)C(=O)N[C@@H](C)C(=O)N[C@@H](C)C(=O)N[C@@H](CCC(N)=O)C(=O)N[C@@H](CC(=O)O)C(=O)N[C@@H](Cc1ccccc1)C(=O)N[C@H](C(=O)N[C@@H](CCC(N)=O)C(=O)N[C@@H](Cc1c[nH]c2ccccc12)C(=O)N[C@@H](CC(C)C)C(=O)N[C@@H](CC(C)C)C(=O)N[C@@H](CCC(=O)O)C(=O)NCC(=O)NCC(=O)N1CCC[C@H]1C(=O)N[C@@H](CO)C(=O)N[C@@H](CO)C(=O)NCC(=O)N[C@@H](C)C(=O)N1CCC[C@H]1C(=O)N1CCC[C@H]1C(=O)N1CCC[C@H]1C(=O)N[C@@H](CO)C(N)=O)C(C)C)C(=O)O [compound 17],greater than 50%
